PubChem BioAssay (NCATS)
The shares of active, inactive and inconclusive entries below differ from those in the screen. Potencies of inconclusive entries are doubtful fits and often do not repeat. The source made the active and inactive calls. Calls follow the shape of the dose curve; as a rule, active = well fitted cell-killing curve with a large enough effect; inconclusive = small, poorly fitted or top-dose-only effect, or effect the other way; inactive = no such curve, though single readings can be large or run the other way.

Experiment: Quantitative High-Throughput drug screen in 47 multiple myeloma cell lines against the NCATS MIPE library collection: L363_DSMZ cell viability assay (AID 1918984); also: nearly all actives have a fitted effect of over 40% in size
Conditions: L363 myeloma viability, CellTiter-Glo ATP luminescence, 48 h; viability (% of control): at 45.8 µM (top of the series)
Method in brief: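 qHTS format: cells plated (500/well), pin-dosed with MIPE 4.0 compounds, kept 48 h at 37 °C. Readout was CellTiter-Glo luminescence, median RLU.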
Potency is read from the fitted curve at half-maximal effect.

Row | Compound | Potency | viability (% of control)
1 | CN(C)c1cc(NC(=O)CNC(C)(C)C)c(O)c2c1C[C@@H]1C[C@H]3[C@H](N(C)C)C(=O)C(C(N)=O)=C(O)[C@@]3(O)C(=O)C1=C2O | inconclusive: 590 nM [rising, partial curve, poor fit] | –
2 | O=C(c1ccccc1)c1ccc2n1CCC2C(=O)O (configuration not stated) | – | inactive: 92.7%
3 | CC(C)(O)[C@H]1CC[C@@](C)([C@H]2[C@@H](O)C[C@@]3(C)[C@@H]4C[C@H](O[C@@H]5O[C@H](CO)[C@@H](O)[C@H](O)[C@@H]5O)[C@H]5C(C)(C)[C@@H](O[C@@H]6OC[C@@H](O)[C@H](O)[C@@H]6O)CC[C@@]56C[C@@]46CC[C@]23C)O1 | inconclusive: 3320 nM [cytotoxic, partial curve, poor fit] | –
4 | COc1ccc2cc([C@H](C)C(=O)O)ccc2c1 | inconclusive: 4.2 nM [cytotoxic, full curve, poor fit] | –
5 | O=Nc1c(-c2c(O)[nH]c3cc(Br)ccc23)[nH]c2ccccc12 | active: 4690 nM | –
6 | O=c1c(O)c(-c2ccc(O)c(O)c2)oc2cc(O)ccc12 | inconclusive: 7430 nM [cytotoxic, single point] | –
7 | O=NN(CCCl)C(=O)NCCCl | – | inactive: 99.3%
8 | NS(=O)(=O)c1cccc2c1C(=O)c1cccc(O)c1C2=O | active: 166 nM | –
9 | CC1=C(CO)C(=O)O[C@@H]([C@@H](C)[C@H]2CC[C@H]3[C@@H]4C[C@H]5O[C@]56[C@@H](O)C=CC(=O)[C@]6(C)[C@@H]4CC[C@]23C)C1 | inconclusive: 37.2 nM [cytotoxic, full curve, poor fit] | –
10 | C=C(c1ccc(C(=O)O)cc1)c1cc2c(cc1C)C(C)(C)CCC2(C)C | inconclusive: 1.9 nM [cytotoxic, full curve, poor fit] | –
11 | COc1ccc2c3c1OC1C[C@@H](O)C=C[C@@]31CCN(C)C2 (some centres not stated) | inconclusive: 1480 nM [cytotoxic, partial curve, poor fit] | –
12 | Cc1ccc(C(=O)Nc2cccc(C(F)(F)F)c2)cc1Nc1nc(-c2cccnc2)nc2c1cnn2C | inconclusive: 4.7 nM [cytotoxic, full curve, poor fit] | –
13 | C=C1C(=CC=C2CCC[C@]3(C)[C@@H]([C@H](C)CCCC(C)(C)O)CC[C@@H]23)C[C@@H](O)C[C@@H]1O | inconclusive: 1050 nM [cytotoxic, full curve, poor fit] | –
14 | NC(CO)C(=O)NNCc1ccc(O)c(O)c1O (configuration not stated) | – | inactive: 88.1%
15 | CNC[C@H](O)c1ccc(O)c(O)c1 | – | inactive: 76.6% [at 92.2 µM]
16 | CC1(C)CCC2=C(O1)c1ccccc1C(=O)C2=O | inconclusive: 372 nM [cytotoxic, full curve, poor fit] | –

Structures shown so far that contain a carbonyl joined to an NH by a bond outside any ring (4):
Row | Compound | Potency | viability (% of control)
1 | CN(C)c1cc(NC(=O)CNC(C)(C)C)c(O)c2c1C[C@@H]1C[C@H]3[C@H](N(C)C)C(=O)C(C(N)=O)=C(O)[C@@]3(O)C(=O)C1=C2O | inconclusive: 590 nM [rising, partial curve, poor fit] | –
7 | O=NN(CCCl)C(=O)NCCCl | – | inactive: 99.3%
12 | Cc1ccc(C(=O)Nc2cccc(C(F)(F)F)c2)cc1Nc1nc(-c2cccnc2)nc2c1cnn2C | inconclusive: 4.7 nM [cytotoxic, full curve, poor fit] | –
14 | NC(CO)C(=O)NNCc1ccc(O)c(O)c1O (configuration not stated) | – | inactive: 88.1%

More records follow:

Row | Compound | Potency | viability (% of control)
17 | CCn1cc(C(=O)O)c(=O)c2cc(F)c(N3CCNC(C)C3)c(F)c21 (configuration not stated) | – | inactive: 91.2%
18 | N[C@@H](Cc1c[nH]c2ccc(O)cc12)C(=O)O | – | inactive: 106%
19 | Cc1cc2c(s1)Nc1ccccc1N=C2N1CCN(C)CC1 | inconclusive: 372 nM [rising, full curve, poor fit] | –
20 | CCN(CC)C(=S)SSC(=S)N(CC)CC | – | inactive: 102%
21 | CN1CCC(=C2c3ccccc3CCc3sccc32)CC1 | inconclusive: 18700 nM [cytotoxic, partial curve] | –
22 | CCOC(=O)N1CCN([N+]([O-])=NOc2ccc([N+](=O)[O-])cc2[N+](=O)[O-])CC1 | inconclusive: 3720 nM [cytotoxic, full curve] | –
23 | CC[C@]1(O)C[C@@H]2CN(CCc3c([nH]c4ccccc34)[C@@](C(=O)OC)(c3cc4c(cc3OC)N(C=O)[C@@H]3C45CCN4CC=C[C@](CC)([C@H]45)[C@@H](OC(C)=O)[C@]3(O)C(=O)OC)C2)C1 (some centres not stated) | – | inactive: 90.2%
24 | CCc1ccc(OCc2ccccc2C(=O)Nc2ccc3nc(C)cc(N)c3c2)cc1 | active: 1180 nM | –
25 | COC(=O)C1=CO[C@@H](O)[C@@H]2C(CO)=CC[C@@H]12 | inconclusive: 23500 nM [cytotoxic, partial curve, poor fit] | –
26 | Cc1ccc(F)c(NC(=O)Nc2ccc(-c3cccc4[nH]nc(N)c34)cc2)c1 | active: 4180 nM | –
27 | C=C1C(=O)[C@@]23C(CC[C@@H]1[C@H]2O)[C@@]12CO[C@]3(O)[C@@H](O)[C@@H]1C(C)(C)CC[C@@H]2O (some centres not stated) | inconclusive: 935 nM [cytotoxic, full curve, poor fit] | –
28 | O=C(O)c1ccccc1C(=O)Nc1ccc(-c2ccccc2)cc1 | – | inactive: 120%
29 | COc1ccc(-c2coc3cc(O)cc(O)c3c2=O)cc1 | inconclusive: 18700 nM [cytotoxic, partial curve, poor fit] | –
30 | NC1CCC(Nc2nc(Nc3ccc(C(=O)N4CCCCC4)cc3)c3ncn(-c4cccc(F)c4)c3n2)CC1 (configuration not stated) | – | inactive: 99.5%
31 | Cc1ccnc2c1NC(=O)c1cccnc1N2C1CC1 | – | inactive: 70.3%
32 | CC(C)(O)c1cc2nc(-c3cnc(N)nc3)nc(N3CCOCC3)c2s1 | inconclusive: 13.2 nM [cytotoxic, full curve, poor fit] | –
